Reference: patent publication US5387671A (Abbott Laboratories, priority 1990, dated 1995)
For some assays here: HELM strings list residues between dots; [ac] is acetyl, [am] amide, other brackets name non-standard units.

Assays:
[1] = Boc solid-phase peptide synthesis; Merrifield resin; conditions: whole synthesis, scale 0.6 g peptide resin
[2] = general procedure: Boc solid-phase peptide synthesis; Boc-DArg(N-guanidino-Tos)-Merrifield resin; conditions: whole synthesis, scale 0.56 g peptide resin

| Substance | crude mass [1] | crude mass [2] |
| --- | --- | --- |
| PEPTIDE1{[NMePhe].K.P.[D-Cha].[PhePsiCH2NH-D-Arg]}$$$$V2.0 | 148 mg | – |
| N-Acetyl-Phenylalanyl-Lysyl-(N-Methyl)Alanyl-{(2R)-2 -Amino-3-cyclohexylpropanoyl}-{(2S)-2-Amino-3-cyclohexylpropanoyl}-DArginyl-OH | – | 130 mg |
